The list does not hold the whole screen: it gathers tests that were run many times, whatever their T/C, doses with no T/C, and many T/C values between a quarter and a half above the control. Other doses and runs of a compound stand elsewhere. T/C is the treated group as % of the vehicle group. Some doses have a count of surviving animals in place of a T/C: the source holds a T/C of zero for them, seemingly a mark for toxic or unscored doses. Some doses without a T/C left all or most animals alive at the check, yet need not have been tolerated: survival well below the control is almost never listed, so the zero probably covers shortened survival too. Survivors were counted at the toxicity check, usually on the fifth day, unless a day is given; later deaths do not show. Schedule codes are those of the source, read here as Q, the interval in days (D) or hours (H), X, the number of doses. Some entries were tested several times; the results are listed from low to high. Signs of the kind (2×) give the number of equal values in this list. For survival time, the PubChem record calls one and a half times the control and up active, and a quarter to a half above the control has no call in these data; cut-offs in other NCI protocols can differ. Some T/C values are followed by the survivors on the day toxicity was checked, most often the fifth; where none is given, no animal had died by that day.
Test system: B6C3F1 mice, ip Sarcoma M5076, median survival T/C
Assay: NCI In Vivo Anticancer Drug Screen. Data for tumor model Sarcoma M5076 (intraperitoneal) in B6C3F1 mice
Conditions: T/C endpoint: median survival time, higher T/C = longer survival
Outline: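 Tumour cells were transplanted into mice, compound or vehicle was given, survival of both groups was followed, and the treated figure was expressed over the control figure.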

[1] = dose: 800.0 mg/kg/injection, schedule: Q04DX004 (ip), vehicle: saline with Tween-80
[2] = dose: 800.0 mg/kg/injection, schedule: Q04DX005 (ip), vehicle: saline with Tween-80
[3] = dose: 200.0 mg/kg/injection, schedule: Q04DX004 (ip), vehicle: saline with Tween-80

In the case of `O=C1c2ccccc2C(=O)c2c(NCCNCCO)ccc(NCCNCCO)c21`, the T/C (dose: 4.0 mg/kg/injection, schedule: Q04DX004 (ip), vehicle: saline) is reported as 126 % of control, the T/C (dose: 10.0 mg/kg/injection, schedule: Q04DX004 (ip), vehicle: saline) is reported as 137 % of control and the T/C (dose: 10.0 mg/kg/injection, schedule: Q04DX004 (ip), vehicle: suspension in saline) is reported as 149 % of control. The T/C (dose: 20.0 mg/kg/injection, schedule: Q04DX004 (ip), vehicle: saline, evaluated on day 60) was 153 and 171 % of control, the T/C (dose: 20.0 mg/kg/injection, schedule: Q04DX004 (ip), vehicle: saline, evaluated on day 75) was 136, 155 (2×), 156, 159 [9 of 10 alive on day 9], 170, 187 % of control and the T/C (dose: 20.0 mg/kg/injection, schedule: Q04DX005 (ip), vehicle: saline, evaluated on day 75) was 150, 159, 164, 185 % of control. The T/C (dose: 20.0 mg/kg/injection, schedule: Q04DX005 (ip), vehicle: saline, evaluated on day 100) was 319 % of control, the T/C (dose: 40.0 mg/kg/injection, schedule: Q04DX004 (ip), vehicle: saline, evaluated on day 60) was 183 and 200 % of control and the T/C (dose: 40.0 mg/kg/injection, schedule: Q04DX004 (ip), vehicle: saline, evaluated on day 75) was 150, 169, 181, 182 [9 of 10 alive on day 14], 185, 188, 216 % of control. For the same compound, the T/C (dose: 40.0 mg/kg/injection, schedule: Q04DX005 (ip), vehicle: saline, evaluated on day 75) was 160, 166, 170, 219 % of control, the T/C (dose: 40.0 mg/kg/injection, schedule: Q04DX005 (ip), vehicle: saline, evaluated on day 100) was 319 % of control and the T/C (dose: 80.0 mg/kg/injection, schedule: Q04DX004 (ip), vehicle: saline, evaluated on day 60) was 234 % of control [9 of 10 alive on day 14]. The T/C (dose: 80.0 mg/kg/injection, schedule: Q04DX004 (ip), vehicle: saline, evaluated on day 75) was 178, 192, 207 [9 of 10 alive on day 9], 209, 219, 241, 274 % of control, the survivor count (dose: 80.0 mg/kg/injection, schedule: Q04DX004 (ip), vehicle: saline) was 6 of 10 on day 14 and the survivor count (dose: 80.0 mg/kg/injection, schedule: Q04DX004 (ip), vehicle: suspension in saline) was 5 of 10 on day 14. For the same compound, the T/C (dose: 80.0 mg/kg/injection, schedule: Q04DX005 (ip), vehicle: saline, evaluated on day 75) was 186 [9 of 10 alive], 215, 278 % of control, the T/C (dose: 80.0 mg/kg/injection, schedule: Q04DX005 (ip), vehicle: saline, evaluated on day 100) was 319 % of control and the survivor count (dose: 80.0 mg/kg/injection, schedule: Q04DX005 (ip), vehicle: saline) was 6 of 9 on day 9. The survivor count (dose: 160.0 mg/kg/injection, schedule: Q04DX004 (ip), vehicle: saline) was 0 of 10 on day 14, 1 of 10 on day 14, 2 of 10 on day 14, 3 of 10 on day 9, 5 of 10 on day 9, 9 of 10 on day 9, 10 of 10 and the survivor count (dose: 160.0 mg/kg/injection, schedule: Q04DX005 (ip), vehicle: saline) was 4 of 10 on day 9, 5 of 10 on day 9, 6 of 10 on day 9, 8 of 10.

In the case of `CN=NN(C)C(=O)NC`, the T/C (dose: 12.5 mg/kg/injection, schedule: Q04DX004 (ip), vehicle: saline) is reported as 136 % of control, the T/C (dose: 18.0 mg/kg/injection, schedule: Q04DX004 (ip), vehicle: saline, evaluated on day 37) is reported as 131 % of control and the T/C (dose: 18.0 mg/kg/injection, schedule: Q04DX004 (ip), vehicle: saline, evaluated on day 60) is reported as 133 % of control. The T/C (dose: 30.0 mg/kg/injection, schedule: Q04DX004 (ip), vehicle: saline) was 149 % of control and the survivor count (dose: 200.0 mg/kg/injection, schedule: Q04DX004 (ip), vehicle: saline) was 0 of 10 on day 14.

In the case of `C/C=C\C1OC1(C)c1cc(=O)c2c(C)cc3c(c2o1)C(=O)c1c(O)c(C2CC(C)(N(C)C)C(OC(C)=O)C(C)O2)cc(C2CC(N(C)C)C(O)C(C)O2)c1C3=O` (centres undefined), the T/C (dose: 1.5 mg/kg/injection, schedule: Q04DX004 (ip), vehicle: saline + alcohol) is reported as 143 % of control.

With `CC(CN1CC(=O)NC(=O)C1)N1CC(=O)NC(=O)C1` (centres undefined) the T/C (dose: 100.0 mg/kg/injection, schedule: Q04DX004 (ip), vehicle: saline with Tween-80, evaluated on day 60) was 111 % of control [9 of 10 alive on day 14], the T/C (dose: 100.0 mg/kg/injection, schedule: Q04DX004 (ip), vehicle: saline with Tween-80, evaluated on day 75) was 111, 113, 114, 116, 118, 120, 126 % of control and the T/C (dose: 100.0 mg/kg/injection, schedule: Q04DX005 (ip), vehicle: saline with Tween-80, evaluated on day 75) was 106, 107, 109, 127 % of control. For the same compound, the T/C (dose: 100.0 mg/kg/injection, schedule: Q04DX005 (ip), vehicle: saline with Tween-80, evaluated on day 100) was 129 % of control, the T/C (dose: 200.0 mg/kg/injection, schedule: Q04DX004 (ip), vehicle: saline with Tween-80, evaluated on day 60) was 118 % of control and the T/C (dose: 200.0 mg/kg/injection, schedule: Q04DX004 (ip), vehicle: saline with Tween-80, evaluated on day 75) was 108 [9 of 10 alive on day 14], 109, 116, 118, 124, 141, 144 % of control. The T/C (dose: 200.0 mg/kg/injection, schedule: Q04DX005 (ip), vehicle: saline with Tween-80, evaluated on day 75) was 100, 110, 114, 130 % of control [9 of 10 alive on day 9], the T/C (dose: 200.0 mg/kg/injection, schedule: Q04DX005 (ip), vehicle: saline with Tween-80, evaluated on day 100) was 137 % of control and the T/C (dose: 400.0 mg/kg/injection, schedule: Q04DX004 (ip), vehicle: saline with Tween-80, evaluated on day 60) was 123 % of control [9 of 10 alive on day 14]. The T/C (dose: 400.0 mg/kg/injection, schedule: Q04DX004 (ip), vehicle: saline with Tween-80, evaluated on day 75) was 112, 115 [9 of 10 alive on day 9], 117 [7 of 9 alive on day 14], 119 [9 of 10 alive on day 14], 122 [9 of 10 alive on day 9], 147 [8 of 10 alive on day 9], 150 % of control [9 of 10 alive on day 14], the T/C (dose: 400.0 mg/kg/injection, schedule: Q04DX005 (ip), vehicle: saline with Tween-80, evaluated on day 75) was 115, 120, 128 % of control and the T/C (dose: 400.0 mg/kg/injection, schedule: Q04DX005 (ip), vehicle: saline with Tween-80, evaluated on day 100) was 161 % of control. The survivor count (dose: 400.0 mg/kg/injection, schedule: Q04DX005 (ip), vehicle: saline with Tween-80) was 6 of 10 on day 9, the T/C [1] was 110 and 111 % of control and the survivor count [1] was 0 of 10 on day 14, 5 of 10 on day 14, 6 of 10 on day 14 (2×), 7 of 10 on day 9, 8 of 10 on day 9. The T/C [2] was 112 [9 of 10 alive] and 148 % of control and the survivor count [2] was 3 of 10 on day 9 and 8 of 10 on day 9.

In the case of `O=C(Nc1ccccc1)c1c(O)[nH]c(=S)[nH]c1=O`, the T/C (dose: 12.5 mg/kg/injection, schedule: Q04DX004 (ip), vehicle: saline with Tween-80) is reported as 108, 112, 113, 119 % of control, the T/C (dose: 25.0 mg/kg/injection, schedule: Q04DX004 (ip), vehicle: saline with Tween-80) is reported as 114, 115, 116, 118, 119, 124, 130 % of control and the T/C (dose: 50.0 mg/kg/injection, schedule: Q04DX004 (ip), vehicle: saline with Tween-80) is reported as 127, 131, 133 (2×), 135, 147, 149 % of control. For the same compound, the T/C (dose: 100.0 mg/kg/injection, schedule: Q04DX004 (ip), vehicle: saline with Tween-80) was 139, 144 [8 of 10 alive on day 14], 155 [7 of 10 alive on day 14], 157, 170, 172, 207 % of control [8 of 10 alive on day 14], the T/C [3] was 164, 184, 184 % of control [9 of 10 alive on day 14] and the survivor count [3] was 0 of 10 on day 14, 4 of 10 on day 14, 5 of 10 on day 14. The survivor count (dose: 400.0 mg/kg/injection, schedule: Q04DX004 (ip), vehicle: saline with Tween-80) was 0 of 10 on day 14 and 2 of 10 on day 14.

For `BrC[P+](CBr)(CBr)CBr`, the T/C (dose: 62.5 mg/kg/injection, schedule: Q04DX004 (ip), vehicle: saline with Tween-80) was 125 and 136 % of control, the survivor count (dose: 125.0 mg/kg/injection, schedule: Q04DX004 (ip), vehicle: saline with Tween-80) was 3 of 10 on day 14 and the survivor count (dose: 250.0 mg/kg/injection, schedule: Q04DX004 (ip), vehicle: saline with Tween-80) was 0 of 10 on day 14 and 3 of 10 on day 14.

For `CC1=CC(=NN=c2cc(C)n([O-])c(C)c2)C=C(C)[N+]1=O`, the T/C [1] was 125 % of control [7 of 10 alive on day 9].

For `O=C(O)CCCc1ccc(N(CCCl)CCCl)cc1`, the T/C (dose: 8.0 mg/kg/injection, schedule: Q04DX004 (ip), vehicle: saline with Tween-80) was 134 % of control, the T/C (dose: 16.0 mg/kg/injection, schedule: Q04DX004 (ip), vehicle: saline with Tween-80, evaluated on day 60) was 149 % of control and the T/C (dose: 16.0 mg/kg/injection, schedule: Q04DX004 (ip), vehicle: saline with Tween-80, evaluated on day 75) was 142 % of control [8 of 10 alive on day 14]. The survivor count (dose: 32.0 mg/kg/injection, schedule: Q04DX004 (ip), vehicle: saline with Tween-80) was 0 of 10 on day 14 and 6 of 10 on day 14 and the survivor count (dose: 64.0 mg/kg/injection, schedule: Q04DX004 (ip), vehicle: saline with Tween-80) was 0 of 10 on day 14.
